# Laboratory results: the supplement of paper PMC12873370
# Where “and” joins values, the source holds several entries; their conditions need not be identical. Identical values can stand only once. This is one part of the list. Repeats are few or missing, and single values can be far off.
# Tests used:
# [1] = test system: MEPP (mouse ovarian epithelium Trp53/Pten KO); assay: cell viability relative to untreated (fraction); higher = less growth inhibition; conditions: 5 µM; 3 days
# [2] = test system: PREPP (mouse prostate epithelium Trp53/Pten KO); assay: as above; conditions: 5 µM; 3 days
SMILES,cell viability [1],cell viability [2]
O=C(NCC(=O)N1CCCC1)Nc1ccc2cnccc2c1,1.15,1.13
CCCOc1ccn2c(C(C)=O)cc(-c3ccccc3S(C)(=O)=O)c2c1,1.14,1.02
O=c1c(-n2ccnn2)c[nH]n1-c1cc(N2CCOCC2)ncn1,0.927,0.933
O=C(NC[C@H](O)CN1CCc2ccccc2C1)c1cc(NC2COC2)ncn1,1.02,0.926
O=C(C=Cc1ccccc1)NC(NC(=S)Nc1ccc(Cl)cc1)C(Cl)(Cl)Cl (stereo unspecified),0.821,0.97
COc1cc2c(cc1OC)C(=O)C(CC1CCN(Cc3ccccc3)CC1)C2 (stereo unspecified),1.07,0.905
O=C(O)CCNc1cc(N2CCc3ccccc3CC2)nc(-c2ccccn2)n1,1,0.968
CC(C)Oc1ccc(-c2c[nH]cc2CN(C)CCN)cc1,1.03,1.02
CC(C)N(CCCNC(=O)Nc1ccc(C(C)(C)C)cc1)C[C@H]1O[C@@H](n2ccc3c(N)ncnc32)[C@H](O)[C@@H]1O,0.963,0.904
CCS(=O)(=O)c1cccc(-c2cc(C(=O)NC3CCN(C)CC3)c(C)c3[nH]c4ncc(C)cc4c23)c1,0.863,0.824
O=C(COc1cccc2c(=O)[nH]ccc12)c1ccccc1,0.803,0.802
COc1ccc(-n2c(SCCCN3C(=O)c4cccc5cccc(c45)C3=O)nnc2-c2ccncc2)cc1,0.787,0.994
Nc1ccn([C@@H]2O[C@H](CO)[C@@H](O)C2(F)F)c(=O)n1,0.113,0.601
Nc1nc(OCc2cc(Br)cs2)c2[nH]cnc2n1,1.05,0.919
CCc1cccc(CC)c1NC(=O)N1Cc2[nH]nc(NC(=O)c3ccc(N4CCN(C)CC4)cc3)c2C1,0.938,0.729
C[C@]1(c2nc3c(C(N)=O)cccc3[nH]2)CCCN1,1.07 and 0.993,0.81 and 0.911
O=C(O)[C@]1(Cc2cccc(Nc3nccs3)n2)CC[C@@H](Oc2cccc(Cl)c2F)CC1,0.593,0.747
C[C@@H]1O[C@@H](CC(=O)O)CC2=C1C(=O)c1c(O)cccc1C2=O,0.128,0.257
COc1cc2ncnc(Nc3ccc(O)c(Br)c3)c2cc1OC,0.791,0.687
O=C(c1ccc(/C=C/c2n[nH]c3ccccc23)cc1)N1CCNCC1,0.84,0.586
CCn1c(C(=O)N(C2CC2)C2CC2)cc2c3c(ncn3C)c(Nc3cc(C)n(C)n3)nc21,0.677,0.626
O=P(O)(O)OC(CO)CO,1.1,0.951

SMILES,cell viability [1],cell viability [2]
CCCCNNC(=O)c1ccc(Br)cc1,0.974,0.714
O=S(=O)(O)c1ccc2cc(N=Nc3cc(S(=O)(=O)O)c4cccnc4c3O)ccc2c1,0.802,1
C/C=C1\NC(=O)[C@H]2CSSCC/C=C/[C@H](CC(=O)N[C@H](C(C)C)C(=O)N2)OC(=O)[C@H](C(C)C)NC1=O,0.252,0.834
CCN(CC)Cc1cc(Nc2ccnc3cc(Cl)ccc23)ccc1O,0.925,0.885
CCS(=O)(=O)N1CC(CC#N)(n2cc(-c3ncnc4[nH]ccc34)cn2)C1,0.996 and 1.1,0.891 and 1
O=C(CCCCCCC(=O)Nc1ccc([C@H]2O[C@@H](CSc3nc(-c4ccccc4)c(-c4ccccc4)o3)C[C@@H](c3ccc(CO)cc3)O2)cc1)NO,0.84,1.06
CN(C)CCCCC(=O)Nc1ccc(NC(=S)NC(=O)c2ccc(C(C)(C)C)cc2)cc1,0.286,0.89
Cc1cn(CCN2CCN(c3ccccc3-c3cc(C#N)cc(C(=O)NCCCN4CCCC4)c3)CC2)c2ccccc12,1.02,1.03
Cc1cc(C)nc(SCC(=O)Nc2ncc(Cc3cccc4ccccc34)s2)n1,1.1,1.01
Cc1ccc(NC(=O)CCCCCC(=O)Nc2ccccc2N)cc1,1.01,0.856
CCN(CC)CCNC(=O)c1ccc(N)cc1,0.966,0.821
CC[C@@H]1C(=O)N(C)c2cnc(Nc3ccc(C(=O)NC4CCN(C)CC4)cc3OC)nc2N1C1CCCC1,0.408,0.721
O=C(CCCCCCNC(=O)c1cnc(N(c2ccccc2)c2ccccc2)nc1)NO,0.782,0.966
N=C1NC(=O)/C(=C/c2ccc(O)cc2)S1,1.02,0.959
O=S(=O)(c1cccc2cnccc12)N1CCCNCC1,0.884,1.16
Cc1cc(Nc2cc(N3CCN(C)CC3)nc(/C=C/c3ccccc3)n2)n[nH]1,0.634 and 0.651,0.642 and 0.573
Nc1cc(F)ccc1NC(=O)c1ccc(CNC(=O)/C=C/c2cccnc2)cc1,0.967,0.839
CN1CCN(c2cccc(Nc3nc4c(-c5ccc(S(C)(=O)=O)cc5)cccn4n3)c2)CC1,0.937,0.549
CN(C)Cc1c(C(=O)NCCOc2ccc(C(=O)NO)cc2)oc2ccccc12,0.531,0.627
COc1ccc(Cn2ccc3ccc(C(=O)NO)cc32)cc1,0.968,0.725
O=[N+]([O-])c1ccc(Sc2cccc[n+]2[O-])c2nonc12,0.852,0.67
O=Nc1c(-c2c(O)[nH]c3cc(Br)ccc23)[nH]c2ccccc12,0.708,0.371

SMILES,cell viability [1],cell viability [2]
Cc1ccc2nc(NCCN)c3ncc(C)n3c2c1,0.799,0.753
Cn1cc(-c2ccc(S(=O)(=O)n3ccc(/C=C/C(=O)Nc4ccccc4N)c3)cc2)cn1,0.58,0.639
O=C(O)c1ccccc1Nc1cccc(C(F)(F)F)c1,0.921,0.819
NC(=O)c1ccc(I)c([N+](=O)[O-])c1,1.13,0.992
CC(C)(C)c1nc2c3cc[nH]c(=O)c3c3cc(F)ccc3c2[nH]1,0.727,0.711
CCC(Sc1nnc2c(n1)[nH]c1ccccc12)C(=O)N1c2ccccc2Sc2ccccc21 (stereo unspecified),0.715,0.742
Cn1cc(C2=C(c3cn(CCCSC(=N)N)c4ccccc34)C(=O)NC2=O)c2ccccc21,0.435,0.772
Cc1cnc(Nc2ccc(OCCN3CCCC3)cc2)nc1Nc1cccc(S(=O)(=O)NC(C)(C)C)c1,0.742,0.519
CC(C)[C@H](C(=O)Nc1ccc(C(=O)NO)cc1)c1ccccc1,1.06,0.828
N#CCNC(=O)c1ccc(-c2ccnc(Nc3ccc(N4CCOCC4)cc3)n2)cc1,0.59,0.546
O=C(O)c1ccc(O)c2ncccc12,0.979,1.02
O=C(O)c1ccc(Nc2ncc3c(n2)-c2ccc(Cl)cc2C(c2c(F)cccc2F)=NC3)cc1,0.686,0.631
N.N.O=C([O-])C[O-].[Pt+2],0.861,0.767
CCCCCCCc1ccc(CCc2cccc(O)c2C(=O)O)cc1,0.994,1.02
O=C1NC(=O)/C(=C/c2cccc(C(F)(F)F)c2)S1,0.78,0.795
O=C(c1cccc(Cl)c1F)N1CCN(Cc2cccc(Nc3nccs3)n2)CC1,0.525,0.829
O=C(NCC1(c2nc(-c3ccccc3)cs2)CCOCC1)c1cccc(-c2noc(C(F)(F)F)n2)c1,0.949,0.954
O=C(/C=C/c1cccc(S(=O)(=O)Nc2ccccc2)c1)NO,0.488,0.79
CC(C)(CCCCCC(O)CCCCCC(C)(C)C(=O)O)C(=O)O,0.956,0.838
Nc1cc(F)ccc1NC(=O)/C=C/c1cnn(C/C=C/c2ccccc2)c1,1.15,0.905
Cc1nc(N)sc1-c1ccnc(Nc2ccc(N3CCOCC3)cc2)n1,0.689,0.421
Cc1cc(CN2CCN(c3c(Br)cnc4nc(-c5ccc(N6CCN(C)CC6)cc5)[nH]c34)CC2)no1,0.336,0.748

SMILES,cell viability [1],cell viability [2]
CCN(CC)Cc1ccc2cc(COC(=O)Nc3ccc(C(=O)NO)cc3)ccc2c1,0.826,0.554
N#Cc1ccc(COc2ccc(-c3cccc4nc(NC(=O)C5CC5)nn34)cc2)cn1,0.79,0.707
Nc1ccccc1NC(=O)c1ccc(CNc2nccc(-c3cccnc3)n2)cc1,0.707,0.729
CN1C/C=C/CCOc2cccc(c2)-c2ccnc(n2)Nc2cccc(c2)C1,0.381,0.707
c1cc(-c2cnn3cc(-c4ccc(OCCN5CCCCC5)cc4)cnc23)ccn1,0.499 and 0.903,0.526 and 0.769
COc1cc2c(cc1OCCCN1CCCC1)N=C(N)C21CCC1,1.05,0.894
O=C(CCCCCN1C(=O)c2cccc3cccc(c23)C1=O)NO,0.576,0.526
COC1CCN(C(=O)c2cc(Cc3n[nH]c(=O)c4ccccc34)ccc2F)CC1,0.843,0.946
COc1cc(Nc2ncc3c(n2)-c2ccc(Cl)cc2C(c2c(F)cccc2OC)=NC3)ccc1C(=O)O,0.558,0.586
COc1cc2c(NC3CCN(C(C)C)CC3)nc(N3CCC(F)(F)CC3)nc2cc1OCCCN1CCCC1,1.04,0.978
O=C(Nc1ccc(CN2CCOCC2)cc1)c1ccc(-c2cccc(Cl)c2)o1,0.962,1
C=CC(=O)c1ccc2ccccc2c1,0.843,1.18
COC(=O)c1ccc(N2CCN(C)CC2)c(NC(=O)c2cccc(OC)c2)c1,1.01,0.868
CC(=O)Nc1ccc(NC(=S)NC(=O)c2ccc(C(C)(C)C)cc2)cc1,0.421,0.603
COC(=O)[C@]12CCC(C)(C)C[C@H]1[C@H]1C(=O)C=C3[C@@]4(C)C=C(C#N)C(=O)C(C)(C)[C@@H]4CC[C@@]3(C)[C@]1(C)CC2,0.144,0.383
CCC1C/C(=C\c2cccnc2)C(=O)/C(=C/c2cccnc2)C1 (stereo unspecified),0.991,0.769
CNNCc1ccc(C(=O)NC(C)C)cc1,1.05,1.02
Cn1cc(/C=C/C(=O)c2cccc(F)c2)cc1/C=C/C(=O)NO,1,0.747
NC1CCCN(c2c(/C=C3/SC(=O)NC3=O)cccc2-c2ccccc2)C1 (stereo unspecified),0.913,0.802
Cc1cc(Cl)ccc1OCCCC(=O)NO,0.708,0.813
Cc1cc(Nc2cc(CN3CCOCC3)c3nc(C)c(Cc4ccc(Cl)cc4F)n3n2)n[nH]1,0.821,0.805
N[C@H]1CC[C@H](N[C@@H]2C[C@H]2c2ccccc2)CC1,0.885,0.891
